± gives the standard deviation of the averaged measurements. The list shows a part of the results.
Molecular target: T1, A0A087WTW0|A0A087WVR3|Q96T88 and related entries (UniProt Q96T88)
T1 sequence (whole entry): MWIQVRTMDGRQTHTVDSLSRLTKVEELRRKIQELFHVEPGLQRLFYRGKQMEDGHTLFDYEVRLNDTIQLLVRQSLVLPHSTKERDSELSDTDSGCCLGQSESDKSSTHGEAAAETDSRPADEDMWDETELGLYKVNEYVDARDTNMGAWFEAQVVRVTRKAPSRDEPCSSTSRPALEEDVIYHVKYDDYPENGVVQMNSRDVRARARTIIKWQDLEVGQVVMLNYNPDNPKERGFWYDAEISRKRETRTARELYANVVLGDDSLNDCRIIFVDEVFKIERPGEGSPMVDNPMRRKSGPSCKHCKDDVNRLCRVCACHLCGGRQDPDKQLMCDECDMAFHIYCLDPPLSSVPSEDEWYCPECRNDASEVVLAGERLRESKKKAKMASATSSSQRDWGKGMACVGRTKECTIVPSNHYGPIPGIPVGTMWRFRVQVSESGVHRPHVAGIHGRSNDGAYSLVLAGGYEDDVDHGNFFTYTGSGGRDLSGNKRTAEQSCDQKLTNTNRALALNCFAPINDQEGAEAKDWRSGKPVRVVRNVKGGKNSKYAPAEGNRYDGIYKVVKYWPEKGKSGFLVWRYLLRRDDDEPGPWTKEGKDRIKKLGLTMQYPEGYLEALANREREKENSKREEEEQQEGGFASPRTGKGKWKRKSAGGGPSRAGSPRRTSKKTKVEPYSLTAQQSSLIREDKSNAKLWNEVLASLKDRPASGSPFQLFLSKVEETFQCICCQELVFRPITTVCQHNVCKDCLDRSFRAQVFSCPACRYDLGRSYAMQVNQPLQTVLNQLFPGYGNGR
Assay: NP40-soluble protein abundance relative to vehicle (solubility fold change) (ratio); higher = more soluble protein in presence of GTP
Description: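 Solubility proteome profiling in Jurkat crude lysate. Lysate was treated with Mg-GTP (0.1-10 mM) for 10 min at room temperature and 3 min at 37 °C, then solubilised with 0.8% NP40 and benzonase, followed by ultracentrifugation. Proteins were quantified by TMT10 LC-MS/MS; the value is the NP40-soluble abundance relative to the NP40-processed vehicle, from 3 independent experiments.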

`Nc1nc2c(ncn2[C@@H]2O[C@H](COP(=O)(O)OP(=O)(O)OP(=O)(O)O)[C@@H](O)[C@H]2O)c(=O)[nH]1` [guanosine triphosphate] was tested, and the NP40-soluble protein abundance (concentration: 0.1mM) was 1.04 ± 0.019, the NP40-soluble protein abundance (concentration: 0.5mM) was 1.07 ± 0.04 and the NP40-soluble protein abundance (concentration: 1mM) was 1.09 ± 0.02. The NP40-soluble protein abundance (concentration: 2mM) was 1.09 ± 0.025, the NP40-soluble protein abundance (concentration: 4mM) was 1.169 ± 0.0067 and the NP40-soluble protein abundance (concentration: 6mM) was 1.16 ± 0.02. For the same compound, the NP40-soluble protein abundance (concentration: 8mM) was 1.19 ± 0.026 and the NP40-soluble protein abundance (concentration: 10mM) was 1.16 ± 0.044.

— the supplement of paper PMC6411743
